Experimental data: the supplement of paper PMC6078165
± gives the standard deviation of the averaged measurements. Values are relative to the signal before dosing, not to a vehicle control; the signal also falls without drug.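 Labels refer to human fibroblasts, largely primary: uterine (C12385, HUF), lung (H6013), bone (Hs27A), adrenal (HADF), skin (WS1), plus mammary HMF and breast cancer-associated Hs343T. Cancer lines are basal-like or mesenchymal-like triple-negative breast cancer. The paper counts as hits responses shifting over 3x the replicate standard deviation. The tissue of the other fibroblasts is not given here.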

Tested on: MDAMB468
Assay: relative JC-1 red fluorescence (viability) vs pre-drug, coculture with fibroblast (fraction); higher = more viable cancer cells
Settings: 0.1 µM
Experimental: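 JC-1 labelled TNBC cells cocultured 1:1 (1,500 cells each) with CellTrace Violet stained primary or stromal fibroblasts in 384-well plates in FluoroBrite medium, treated with one of 42 anticancer drugs at 0.1, 1, 10 or 100 uM. JC-1 red fluorescence (mitochondrial integrity in cancer cells only) was read by plate reader every 8 h for 72 h. Values are normalised to each well's pre-drug value. The stock of one drug was tenfold lower, so its dose labels may be too high.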

Nc1ccn([C@@H]2O[C@H](CO)[C@@H](O)C2(F)F)c(=O)n1 [Gemcitabine]
relative JC-1 red fluorescence
Settings	8 h	16 h	24 h	32 h	40 h	48 h	56 h	64 h	72 h
coculture fibroblast: C12385	0.894 ± 0.04	0.823 ± 0.055	0.804 ± 0.075	0.751 ± 0.076	0.719 ± 0.082	0.722 ± 0.078	0.686 ± 0.086	0.673 ± 0.093	0.677 ± 0.11
coculture fibroblast: H6013	0.89 ± 0.02	0.793 ± 0.018	0.763 ± 0.019	0.74268 ± 0.00063	0.704 ± 0.012	0.714 ± 0.017	0.683 ± 0.022	0.677 ± 0.033	0.622 ± 0.027
coculture fibroblast: H6019	0.81 ± 0.02	0.77 ± 0.047	0.735 ± 0.06	0.675 ± 0.062	0.626 ± 0.057	0.609 ± 0.054	0.56 ± 0.043	0.529 ± 0.04	0.504 ± 0.038
coculture fibroblast: H6076	0.952 ± 0.029	0.935 ± 0.043	0.882 ± 0.018	0.888 ± 0.016	0.817 ± 0.021	0.805 ± 0.0089	0.757 ± 0.013	0.734 ± 0.026	0.778 ± 0.048
coculture fibroblast: H6231	0.8226 ± 0.0031	0.864 ± 0.1	0.884 ± 0.044	0.807 ± 0.02	0.766 ± 0.024	0.728 ± 0.023	0.634 ± 0.024	0.599 ± 0.025	0.565 ± 0.03
coculture fibroblast: HADF	0.91 ± 0.01	0.828 ± 0.046	0.785 ± 0.031	0.76 ± 0.049	0.683 ± 0.032	0.674 ± 0.0076	0.6168 ± 0.0033	0.597 ± 0.011	0.522 ± 0.011
coculture fibroblast: HCFa	0.871 ± 0.028	0.7861 ± 0.003	0.738 ± 0.012	0.676 ± 0.017	0.592 ± 0.029	0.579 ± 0.045	0.519 ± 0.043	0.476 ± 0.042	0.417 ± 0.031
coculture fibroblast: HCPF	0.8682 ± 0.0065	0.884 ± 0.16	0.916 ± 0.055	0.881 ± 0.054	0.82 ± 0.061	0.753 ± 0.06	0.654 ± 0.055	0.612 ± 0.052	0.547 ± 0.022
coculture fibroblast: HHSteC	0.888 ± 0.018	0.803 ± 0.04	0.748 ± 0.039	0.696 ± 0.054	0.641 ± 0.086	0.644 ± 0.099	0.564 ± 0.12	0.53 ± 0.14	0.475 ± 0.14
coculture fibroblast: HMF	0.8588 ± 0.0042	0.77 ± 0.059	0.903 ± 0.02	0.854 ± 0.029	0.795 ± 0.031	0.774 ± 0.029	0.708 ± 0.026	0.675 ± 0.045	0.622 ± 0.033
coculture fibroblast: HPFa	0.945 ± 0.019	0.916 ± 0.011	0.843 ± 0.024	0.786 ± 0.046	0.755 ± 0.043	0.753 ± 0.045	0.7 ± 0.048	0.676 ± 0.053	0.595 ± 0.066
coculture fibroblast: HUF	0.925 ± 0.022	0.834 ± 0.021	0.763 ± 0.011	0.6884 ± 0.00083	0.6335 ± 0.0014	0.595 ± 0.015	0.528 ± 0.019	0.487 ± 0.03	0.45 ± 0.02
coculture fibroblast: Hs5	0.897 ± 0.027	0.887 ± 0.067	0.9 ± 0.034	0.885 ± 0.032	0.804 ± 0.014	0.753 ± 0.013	0.703 ± 0.014	0.668 ± 0.016	0.6944 ± 0.0038
coculture fibroblast: Hs27A	0.859 ± 0.025	0.795 ± 0.0088	0.757 ± 0.025	0.734 ± 0.029	0.678 ± 0.038	0.67 ± 0.053	0.632 ± 0.058	0.634 ± 0.066	0.583 ± 0.071
coculture fibroblast: Hs343T	0.9184 ± 0.0022	0.963 ± 0.017	0.885 ± 0.024	0.853 ± 0.037	0.781 ± 0.024	0.751 ± 0.024	0.681 ± 0.015	0.6513 ± 0.0029	0.628 ± 0.014
coculture fibroblast: WS1	0.875 ± 0.015	0.7436 ± 0.003	0.7062 ± 0.0015	0.635 ± 0.0096	0.576 ± 0.015	0.5355 ± 0.0046	0.498 ± 0.0067	0.476 ± 0.021	0.473 ± 0.021
